In the supplement of paper PMC3334620:
The full ranking holds about 33,000 sequences; the median of “E-score (-0.5 to 0.5)” is about -0.015, and the highest 2% start at about 0.3. This is one part of the list.

Each sequence was assayed against T1, Abf1 (UniProt P14164) (assay: PBM E-score (8-mer binding enrichment) (E-score (-0.5 to 0.5)); higher = stronger / more preferred TF binding). Settings: protein concentration: 200 nM; construct: GST-full length.
T1 sequence: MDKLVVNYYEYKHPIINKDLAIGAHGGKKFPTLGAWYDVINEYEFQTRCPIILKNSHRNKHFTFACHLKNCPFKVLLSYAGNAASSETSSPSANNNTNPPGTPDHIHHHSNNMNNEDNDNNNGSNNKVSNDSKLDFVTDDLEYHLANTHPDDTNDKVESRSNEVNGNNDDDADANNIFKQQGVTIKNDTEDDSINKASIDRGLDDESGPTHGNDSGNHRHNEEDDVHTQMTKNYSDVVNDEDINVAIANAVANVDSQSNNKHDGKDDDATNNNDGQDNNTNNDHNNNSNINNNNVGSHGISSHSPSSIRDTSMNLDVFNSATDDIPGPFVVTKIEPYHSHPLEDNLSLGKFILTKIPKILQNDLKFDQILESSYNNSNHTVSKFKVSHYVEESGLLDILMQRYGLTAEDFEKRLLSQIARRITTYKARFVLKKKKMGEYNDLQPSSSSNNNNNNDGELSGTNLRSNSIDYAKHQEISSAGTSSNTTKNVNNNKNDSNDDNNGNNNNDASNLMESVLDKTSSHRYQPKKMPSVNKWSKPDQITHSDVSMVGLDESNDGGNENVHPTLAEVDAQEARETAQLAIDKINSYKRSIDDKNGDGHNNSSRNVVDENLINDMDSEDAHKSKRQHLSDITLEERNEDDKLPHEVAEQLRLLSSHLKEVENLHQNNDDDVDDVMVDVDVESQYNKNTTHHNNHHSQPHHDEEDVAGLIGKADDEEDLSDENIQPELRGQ
Procedure, shortened: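 Masliner-normalised scans of fluorescent anti-GST signal were the basis for scoring. That signal came from GST-tagged yeast transcription factors applied at about 100-200 nM to double-stranded universal all-10-mer Agilent arrays on fresh or once-stripped slides. Each ungapped eight-base word, pooled with its reverse complement, received an E-score from the Universal PBM Analysis Suite.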

Compared with GCCTCGTA, GAACGTGA is lower in “PBM E-score” value: 0.214 for the first, 0.105 for the second.

First: CTAATGCA
Second: CACGTCTC
The “PBM E-score” value of the first is higher: 0.129 for the first, 0.0146 for the second.

Compared with ATAAACCG, GGGCGCCC is lower in “PBM E-score” value: -0.00447 for the first, -0.0112 for the second.

Going from CGTCGGAG to ACACACGG, the “PBM E-score” value falls from 0.252 to 0.0803.

Going from GCCTGAAA to GCGCACCC, the “PBM E-score” value falls from 0.0257 to -0.0573.

Going from GAATAACC to ATGCTGAG, the “PBM E-score” value falls from -0.0459 to -0.133.

Going from CAACGCAG to AACCGACC, the “PBM E-score” value rises from -0.169 to 0.0181.

First: CCGCCTGA
Second: ATGAGCAT
The “PBM E-score” value of the first is lower: -0.171 for the first, 0.0212 for the second.

Going from ACTGGTCT to CGCAGTTA, the “PBM E-score” value rises from -0.176 to -0.111.

Going from AATAAGCC to AGCGATGA, the “PBM E-score” value rises from -0.0497 to 0.252.

First: ATGAGAAA
Second: TAAGACGA
The “PBM E-score” value of the first is lower: 0.179 for the first, 0.231 for the second.

Compared with CAGGTTTA, ACCTAGGT is higher in “PBM E-score” value: -0.233 for the first, -0.126 for the second.

Compared with CCCGCACG, CCGCTGAC is lower in “PBM E-score” value: -0.00505 for the first, -0.0211 for the second.

First: AGTGAAAA
Second: CAGATATC
The “PBM E-score” value of the first is lower: -0.0609 for the first, 0.195 for the second.

Compared with ACAAAGTC, ACGGTGCC is higher in “PBM E-score” value: 0.0656 for the first, 0.161 for the second.

Going from ACTAGACT to AGTGTCAA, the “PBM E-score” value rises from -0.0609 to -0.0321.

First: CGGGACCG
Second: GAATCACC
The “PBM E-score” value of the first is lower: -0.027 for the first, 0.142 for the second.

Compared with GTATCGCA, ATCCCAAA is higher in “PBM E-score” value: -0.0276 for the first, 0.0264 for the second.

Going from TCAATCGA to AGACGCCT, the “PBM E-score” value falls from 0.132 to -0.22.

First: AAAGTAGT
Second: CATTAGGG
The “PBM E-score” value of the first is higher: 0.0771 for the first, -0.219 for the second.

First: GATTACCA
Second: ACGTAGTG
The “PBM E-score” value of the first is higher: -0.00189 for the first, -0.118 for the second.

Going from AGAAACAG to CAGAGTGG, the “PBM E-score” value falls from -0.0499 to -0.103.

Compared with AACTACTA, GCGTCAGA is lower in “PBM E-score” value: 0.122 for the first, 0.0352 for the second.

First: GCCGATTA
Second: ACATCACA
The “PBM E-score” value of the first is lower: 0.0337 for the first, 0.183 for the second.

Compared with CCTACTAC, CCAGGCCC is lower in “PBM E-score” value: -0.0898 for the first, -0.219 for the second.

Compared with ATTGCCCC, ATGAGTAC is higher in “PBM E-score” value: -0.0607 for the first, 0.18 for the second.

Going from CCTAGGTC to AACTTTTA, the “PBM E-score” value rises from -0.0415 to 0.196.

First: CCTCGTAC
Second: TAACTGGA
The “PBM E-score” value of the first is higher: 0.273 for the first, -0.0583 for the second.

Compared with GCCGTGCA, GGCCTACC is lower in “PBM E-score” value: 0.223 for the first, -0.111 for the second.

Going from CTGACAAG to GGAACCCC, the “PBM E-score” value falls from 0.0444 to -0.268.

First: CTGTCAAG
Second: GCTTTACC
The “PBM E-score” value of the first is lower: -0.181 for the first, -0.124 for the second.

Compared with CCTCAAAA, AGGCCAGG is higher in “PBM E-score” value: -0.0943 for the first, -0.0593 for the second.

First: CTAATATA
Second: AAGACGCC
The “PBM E-score” value of the first is higher: 0.104 for the first, 0.0231 for the second.

First: ATCAAAAG
Second: CCAGTAAG
The “PBM E-score” value of the first is higher: 0.0504 for the first, -0.103 for the second.

Compared with GCGCAGCA, GCTCCTAC is higher in “PBM E-score” value: -0.0858 for the first, 0.00267 for the second.

Compared with ATGACTAC, CTAAGCGA is lower in “PBM E-score” value: 0.191 for the first, -0.0187 for the second.

Compared with GGTACGGA, ACTGCGAA is lower in “PBM E-score” value: 0.13 for the first, -0.0387 for the second.

First: AGGGTAGA
Second: AGCTAGGC
The “PBM E-score” value of the first is higher: -0.105 for the first, -0.186 for the second.

Compared with ACGTCCCA, CATGTCGC is higher in “PBM E-score” value: -0.035 for the first, 0.0807 for the second.

First: GGACGGAA
Second: ACAAGATA
The “PBM E-score” value of the first is lower: -0.0669 for the first, 0.117 for the second.

First: CGCCAACG
Second: AGCCCCCG
The “PBM E-score” value of the first is higher: -0.107 for the first, -0.256 for the second.

First: GGTTGCCA
Second: GCAGCGAC
The “PBM E-score” value of the first is lower: -0.195 for the first, -0.147 for the second.

First: CCCTTCTA
Second: ACTGGCGC
The “PBM E-score” value of the first is lower: -0.212 for the first, -0.0358 for the second.

First: ACTCTGAT
Second: CGCGGACG
The “PBM E-score” value of the first is lower: 0.043 for the first, 0.174 for the second.

Going from GGCACAGA to AGCCGCCT, the “PBM E-score” value falls from -0.197 to -0.214.

Going from AGCGTAAG to CAGCCTAG, the “PBM E-score” value falls from -0.145 to -0.228.

Compared with AGGACCAG, ATCACGAG is higher in “PBM E-score” value: -0.0993 for the first, 0.2 for the second.
